Reference: patent publication EP0047459A2, “Fluorescent reagent and immunofluorescent determination method” (INTERNATIONAL DIAGNOSTIC TECHNOLOGY, INC., priority 1980, dated 1982)

System: Albumin
Test: Fluorescence quenching by albumin
Details: quenching effect of albumin on the fluorescence (ja/nein)

SMILES	Fluoreszenzlöschung durch Albumin
Nc1ccc(-c2c3ccc(=O)cc-3oc3cc(O)ccc23)c(C(=O)O)c1 [Aminofluorescein, 5-Aminofluorescein]	ja
O=C(O)c1cc(N=C=S)ccc1-c1c2ccc(=O)cc-2oc2cc(O)ccc12 [Fluorescein-isothiocyanat, Fluoresceinisothiocyanat]	ja
